Experimental data: PubChem BioAssay AID504784 (Drosophila RNAi Screening Center, 2011)

Assay: 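Genome-wide knock-down for genes giving too much or too little stored lipid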 (primary screen)
Cell system: Drosophila Kc167 embryonic cells
Reagents: long dsRNA against Drosophila genes, about 250 ng dsRNA per well
Timing: 4 days
Conditions: cells fed 400 µM oleic acid bound to BSA
Detection: 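Cells imaged and segmented; ratio of lipid droplet area to nuclear area, log-transformed, then normalised as a B-score over the screen; higher means more stored lipid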
Scale: droplet/nuclear area B-score: higher = more stored lipid (overstorage)
In all, the deposit lists about 17,000 reagents; this is an unselected part of those with a known target gene and a result. 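Each column is one replicate's B-score; the combined score over replicates was not deposited, so single values may mislead.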 The numbers tell different reagents against one gene apart.

| Target gene | reagent no. | droplet/nuclear area B-score, replicate 1 | droplet/nuclear area B-score, replicate 2 | droplet/nuclear area B-score, replicate 3 |
| --- | --- | --- | --- | --- |
| Ldsdh1 (Lipid droplet subset dehydrogenase 1) | 1 | -0.101 | -1.5 | – |
| mey (morpheyus) | 1 | 0.00751 | 0.658 | – |
| tkv (thickveins) | 1 | -0.349 | 0.483 | – |
| tkv (thickveins) | 2 | 0.27 | 0.0022 | – |
| mRpL35 (mitochondrial ribosomal protein L35) | 1 | 3.08 | 0.209 | – |
| Ns2 (Nucleostemin 2) | 1 | 1.24 | 3.23 | – |
| Saf6 (SAGA factor-like TAF6) | 1 | 0.858 | 0.0247 | – |
| CG10909 | 1 | 0.176 | -1.77 | – |
| Mst98Cb (Male-specific RNA 98Cb) | 1 | -0.0903 | 0.186 | -0.674 |
| Mst98Cb (Male-specific RNA 98Cb) | 2 | -0.0253 | 0.759 | – |
| pcs (parcas) | 1 | -0.79 | 1.02 | – |
| Asph (Aspartyl beta-hydroxylase) | 1 | -0.184 | -0.269 | – |
| Asph (Aspartyl beta-hydroxylase) | 2 | 0.278 | -1.46 | – |
| Cpr49Ag (Cuticular protein 49Ag) | 1 | 0.0679 | 0.00209 | – |
| COX5A (Cytochrome c oxidase subunit 5A) | 1 | 2.08 | 3 | – |
| Gr93c (Gustatory receptor 93c) | 1 | -0.0647 | -0.114 | – |
| Mybbp1A (MYB binding protein 1a) | 1 | 0.768 | – | – |
| CG3246 | 1 | -0.907 | 0.693 | – |
| CG31999 | 1 | 0.187 | 0.988 | – |
| CG31999 | 2 | -1.59 | -1.08 | – |
| CG10516 | 1 | 0.196 | 0.883 | – |
| Frq1 (Frequenin 1) | 1 | 0.0884 | -0.507 | – |
| Sox14 (Sox box protein 14) | 1 | 0.937 | -0.707 | – |
| CG7872 | 1 | 1.11 | 2.46 | -0.13 |
| CG32856 | 1 | 0.883 | -0.0441 | – |
| cysu (Curly Su) | 1 | 0.589 | 3.42 | – |
| twr (twisted bristles roughened eye) | 1 | 0.413 | 2.23 | – |
| CG42562 | 1 | -0.0496 | -0.78 | – |
| Polr2E (RNA polymerase II, I and III subunit E) | 1 | -3.77 | 0.176 | – |
| CG33127 | 1 | -0.118 | -0.387 | – |
| Or33c (Odorant receptor 33c) | 1 | 1.02 | -0.0621 | – |
| ap (apterous) | 1 | -0.935 | -1.59 | – |
| CG33310 | 1 | 0.0398 | 1.59 | – |
| Mvd (Mevalonate diphosphate decarboxylase) | 1 | 1.53 | 0.0562 | -0.437 |
| RhoGAP18B (Rho GTPase activating protein at 18B) | 1 | 0.331 | 0.421 | – |
| RhoGAP18B (Rho GTPase activating protein at 18B) | 2 | -1.9 | 0.244 | – |
| RhoGAP18B (Rho GTPase activating protein at 18B) | 3 | -3.03 | -2.27 | – |
| RhoGAP18B (Rho GTPase activating protein at 18B) | 4 | -1.56 | -0.419 | – |
| plx (pollux) | 1 | -0.751 | 0.133 | – |
| plx (pollux) | 2 | -2.19 | -2.58 | 0.108 |
| plx (pollux) | 3 | -2.12 | -2.01 | – |
| CG8860 | 1 | 2 | 1.35 | – |
| Fer2 (48 related 2) | 1 | 0.452 | -1.82 | – |
| mthl15 (methuselah-like 15) | 1 | 1.26 | 1.5 | – |
| CG32379 | 1 | -0.248 | -0.0995 | – |
| CG14506 | 1 | 1.58 | 0.0317 | – |
| Gasz | 1 | 0.513 | 0.782 | – |
| CG9578 | 1 | -1.31 | -0.28 | – |
| ari-1 (ariadne 1) | 1 | -0.265 | -0.482 | – |
| ari-1 (ariadne 1) | 2 | 0.41 | 0.953 | – |
| Mgtor (Megator) | 1 | 0.314 | 0.169 | – |
| kin17 | 1 | 0.178 | 1.16 | – |
| msb1l | 1 | -0.193 | 1.93 | – |
| Eig71Ef (Ecdysone-induced gene 71Ef) | 1 | 0.952 | -0.293 | – |
| Prp18 | 1 | 1.89 | 4.43 | – |

Entries above whose gene name starts with A or a:
| Target gene | reagent no. | droplet/nuclear area B-score, replicate 1 | droplet/nuclear area B-score, replicate 2 | droplet/nuclear area B-score, replicate 3 |
| --- | --- | --- | --- | --- |
| Asph (Aspartyl beta-hydroxylase) | 1 | -0.184 | -0.269 | – |
| Asph (Aspartyl beta-hydroxylase) | 2 | 0.278 | -1.46 | – |
| ap (apterous) | 1 | -0.935 | -1.59 | – |
| ari-1 (ariadne 1) | 1 | -0.265 | -0.482 | – |
| ari-1 (ariadne 1) | 2 | 0.41 | 0.953 | – |

Next reagents follow:
| Target gene | reagent no. | droplet/nuclear area B-score, replicate 1 | droplet/nuclear area B-score, replicate 2 | droplet/nuclear area B-score, replicate 3 |
| --- | --- | --- | --- | --- |
| ninaB (neither inactivation nor afterpotential B) | 1 | 0.0211 | -0.698 | – |
| mgl (Megalin) | 1 | -0.485 | -0.178 | 0.474 |
| mgl (Megalin) | 2 | -0.0201 | -1.44 | -0.854 |
| mgl (Megalin) | 3 | -1.78 | -2.46 | -0.13 |
| mgl (Megalin) | 4 | -0.256 | -0.91 | -0.477 |
| CG14383 | 1 | 2.75 | 0.0189 | – |
| Dus1 (Dihydrouridine synthase 1) | 1 | 1.28 | -4.7 | – |
| lqfR (liquid facets-Related) | 1 | 0.506 | 1.81 | – |
| lqfR (liquid facets-Related) | 2 | 0.269 | -0.37 | – |
| CG7252 | 1 | -0.474 | 0.78 | – |
| CG7252 | 2 | -0.631 | -0.651 | – |
| slf (schlaff) | 1 | 0.519 | -1.14 | – |
| Dic4 | 1 | 0.762 | 2.05 | – |
| CG13894 | 1 | 1.03 | 2.4 | – |
| CG13894 | 2 | 0.0903 | -0.277 | – |
| CG3764 | 1 | 0.363 | -0.919 | 2.06 |
| CG3330 | 1 | -1.57 | – | – |
| cl (clot) | 1 | 0.0329 | -0.37 | – |
| CG8701 | 1 | -0.623 | -1.75 | – |
| CG7798 | 1 | -0.571 | -0.00401 | – |
| CG42537 | 1 | -1.85 | -1.68 | – |
| CG7300 | 1 | 1.4 | – | – |
| CG4615 | 1 | 0.0896 | -0.597 | – |
| CG4615 | 2 | -1.77 | -1.75 | 2.23 |
| sowah (sosondowah) | 1 | 1.05 | -0.12 | – |
| sowah (sosondowah) | 2 | -0.327 | 1.42 | – |
| Mst98Ca (Male-specific RNA 98Ca) | 1 | -2.7 | -0.344 | 0.0151 |
| omd (oocyte maintenance defects) | 1 | -6.23 | -4.28 | – |
